Test results as given in article PMC10779086, “3-O-Methyltolcapone and Its Lipophilic Analogues Are Potent Inhibitors of Transthyretin Amyloidogenesis with High Permeability and Low Toxicity” (International Journal of Molecular Sciences, 2023).

What was measured:
[1] = Caco-2 intestinal permeability; assay type: in vitro ADME; conditions: human
Method: Caco-2 cells (cod. HTB-37) were bought from ATCC (American Type Culture Collection, Rockville, MD, USA). Caco-2 cells were cultured for 21 days on a 24 trans-well plate to reach the right confluence and differentiate until the formation of the intestinal epithelium mimetic monolayer. The test substance permeability was measured in both directions (apical to basolateral [A→B] and basolateral to apical [B→A]) across the cell monolayer. The assay was carried out in HBSS transport medium at pH 7.4. Test substance at single concentration (10 μM) was tested in duplicate at one time point (60 min). Monolayer integrity of Caco-2 cells was evaluated by TEER measurements during the experiment and by Lucifer Yellow test after the incubation with the test compound. The concentrations of the test substance and/or reference controls were measured by LC-MS/MS.
The efflux ratio (Papp BA/Papp AB) was determined, providing an Indicator of the compound’s active efflux. A P-glycoprotein (P-gp) inhibitor, Elacridar (EL 2 µM), was included to identify the active transport mediated by apical efflux transporters. […] As control, the modulation of the efflux ratio of a reference known substrate (Digoxin) was evaluated with or without the respectively inhibitors in every experiment. […] In parallel, mass balance (%) of recovered test substance was also determined. […]

[2] = system: Caco-2 cells; conditions: A→B, expected value in brackets; cited from earlier work

recovery at 60 min, 10 µM ([1]; Caco-2, pH 7.4, A→B): 86 ± 1%
Papp A→B at 60 min, 10 μM ([1]; Caco-2, A→B, 10 μM, 60 min, pH 7.4): < 1 ×10⁻⁶ cm/s
SMILES: CC(C)NCC(O)COc1ccc(CC(N)=O)cc1 (stereo not drawn) [Atenolol, reference compound]
Papp [Expected Values] [2]: <10 [<10] nm/s
